Assay results published in patent US20170305985A1 (Stanford University, published 2017).
No constants are given. Whether binding was seen depends on the method and setting. Some entries that bind do so weakly or less than the wild type.

The chains behind the UniProt entries cited, without tags or fusion partners. Where a name states a change or a piece, a line headed by the entry shows the natural chain unless it says otherwise. Residues count along the entry.
UniProt P08581, residues 25-932: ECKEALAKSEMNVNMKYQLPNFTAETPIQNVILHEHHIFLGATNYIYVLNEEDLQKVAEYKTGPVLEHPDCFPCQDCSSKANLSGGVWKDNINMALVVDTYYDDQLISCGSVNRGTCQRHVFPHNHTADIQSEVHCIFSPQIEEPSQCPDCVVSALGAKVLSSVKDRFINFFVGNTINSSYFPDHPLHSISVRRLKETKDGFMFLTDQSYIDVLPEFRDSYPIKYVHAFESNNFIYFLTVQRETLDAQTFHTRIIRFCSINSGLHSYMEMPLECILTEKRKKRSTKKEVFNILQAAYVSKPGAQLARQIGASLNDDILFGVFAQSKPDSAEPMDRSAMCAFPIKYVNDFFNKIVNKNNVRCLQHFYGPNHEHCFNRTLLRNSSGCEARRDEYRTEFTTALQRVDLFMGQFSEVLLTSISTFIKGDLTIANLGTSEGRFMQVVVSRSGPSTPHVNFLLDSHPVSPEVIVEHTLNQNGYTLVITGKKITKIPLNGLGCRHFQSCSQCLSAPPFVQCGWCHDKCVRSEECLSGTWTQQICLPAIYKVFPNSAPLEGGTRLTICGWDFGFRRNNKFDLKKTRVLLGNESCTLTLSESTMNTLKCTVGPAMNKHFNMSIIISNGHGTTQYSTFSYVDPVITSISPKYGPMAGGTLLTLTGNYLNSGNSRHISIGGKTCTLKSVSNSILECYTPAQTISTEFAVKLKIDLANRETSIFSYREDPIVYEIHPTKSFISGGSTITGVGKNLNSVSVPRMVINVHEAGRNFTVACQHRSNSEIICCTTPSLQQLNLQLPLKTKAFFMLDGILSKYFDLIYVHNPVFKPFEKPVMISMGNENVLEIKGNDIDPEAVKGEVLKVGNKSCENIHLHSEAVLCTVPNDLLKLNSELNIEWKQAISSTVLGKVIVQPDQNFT
UniProt P14210: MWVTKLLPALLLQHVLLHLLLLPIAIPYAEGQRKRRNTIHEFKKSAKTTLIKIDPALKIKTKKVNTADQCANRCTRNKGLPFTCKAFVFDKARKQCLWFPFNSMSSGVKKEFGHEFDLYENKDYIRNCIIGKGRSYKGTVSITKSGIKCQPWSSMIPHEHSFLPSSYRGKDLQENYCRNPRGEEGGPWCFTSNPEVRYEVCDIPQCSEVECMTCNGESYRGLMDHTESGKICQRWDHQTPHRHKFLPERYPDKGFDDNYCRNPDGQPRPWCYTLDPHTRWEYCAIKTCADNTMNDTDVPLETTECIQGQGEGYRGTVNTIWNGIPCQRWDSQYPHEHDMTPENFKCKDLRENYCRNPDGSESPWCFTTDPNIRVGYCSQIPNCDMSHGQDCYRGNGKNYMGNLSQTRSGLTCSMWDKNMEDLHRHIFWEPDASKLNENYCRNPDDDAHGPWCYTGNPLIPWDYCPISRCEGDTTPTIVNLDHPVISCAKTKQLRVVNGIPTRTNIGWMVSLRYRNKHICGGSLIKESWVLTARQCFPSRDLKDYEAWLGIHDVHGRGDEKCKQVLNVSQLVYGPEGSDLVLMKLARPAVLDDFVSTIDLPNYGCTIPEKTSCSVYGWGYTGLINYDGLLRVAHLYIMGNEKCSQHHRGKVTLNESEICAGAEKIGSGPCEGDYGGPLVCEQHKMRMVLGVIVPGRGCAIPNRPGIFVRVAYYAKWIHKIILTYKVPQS

Assays:
[1] = target: Met-Fc fusion protein (R&D Systems) labeled with Alexa 488 (UniProt P08581); experiment: flow cytometry, yeast surface display, Met-Fc Alexa-488
[2] = target: Met-Fc fusion protein (R&D Systems) labeled with Alexa 488 (UniProt P08581); experiment: flow cytometry, yeast surface display, Met-Fc Alexa-488 at 20, 0.2 and 0.04 nM

Substance | binding [1] | binding [2]
Aras-4 M3S7.2.11 (yeast-displayed clone of the third round of directed evolution) (from UniProt P14210 28-210) (ligand) | binds | 
yeast-displayed NK1 mutant M2.1 (from UniProt P14210 28-210) (ligand) |  | binds
yeast-displayed NK1 mutant M2.2 (from UniProt P14210 28-210) (ligand) |  | binds
